Assay results as given in PubChem BioAssay AID2685 (National Center for Advancing Translational Sciences (NCATS), 2010).
This is one part of the list. Further columns of the screen follow, without active or inactive calls. Compounds called inactive in the main read-out are mostly missing here. The note in brackets gives the kind of curve behind each potency; many fits are weak.

Assay: qHTS Assay for Lipid Storage Modulators in Drosophila S3 Cells;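 for cell number change: cells counted by Cell Tracker Red CMTPX staining in the red channel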
Settings: BODIPY lipid droplet fluorescence, 18-24 h; for cell number change: measured here: cell count max response, cells fed with added oleic acid
Procedure, shortened: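 Laser-scanning cytometry quantifies lipid droplet accumulation (500–530 nm total intensity; droplet/cell object ratio) in oleic acid-fed (400 uM added) Drosophila S3 cells treated with a concentration series. 20 uM Triacsin C defined 100% inhibition.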

[1] = measured here: lipid fluorescence (Fed channel) AC50, cells fed with added oleic acid
[2] = measured here: cell number channel AC50, cells fed with added oleic acid

| Structure (SMILES) | AC50 [1] | cell number change [%] | AC50 [2] |
| --- | --- | --- | --- |
| O=C(c1cc2ccccc2o1)N1CCOCC1 | 29.1 µM [falling, single point] |  |  |
| CC1=CC(C)(C)n2c(O)c(N=N)c3c(C)c(C)cc1c32 | 4.61 µM [falling, full curve] | -25.3 |  |
| O=C(NCCc1c[nH]c2ccccc12)/C(=C\c1cccnc1)NC(=O)c1ccccc1F | 6.51 µM [falling, single point] |  |  |
| Cc1noc(NS(=O)(=O)c2ccc(NC(=O)CS(=O)(=O)c3ccccc3)cc2)c1C | 13 µM [falling, partial curve] | -22.7 |  |
| CCOC(=O)C1(Cc2cccc(F)c2)CCN(C(=O)c2ccoc2C)CC1 | 0.58 µM [rising, full curve, poor fit] | 11.1 |  |
| CC(NC(=O)Cc1ccccc1)C(=O)O (stereo unspecified) | 0.00517 µM [rising, full curve, poor fit] | 3.16 |  |
| O=[N+]([O-])c1ccc(Oc2ccc(S(=O)(=O)Nc3ccccc3)cc2)cc1 | 16.4 µM [falling, single point] | -2.54 |  |
| CN=C1SC(CC(=O)Nc2c(C)cccc2C)C(=O)N1/N=C/c1cccs1 (stereo unspecified) |  | -16.7 | 0.92 µM [rising, full curve] |
| CCCCCC(=O)Nc1ccc2oc(-c3cncc(Br)c3)nc2c1 | 0.82 µM [rising, partial curve] | 35.2 | 0.13 µM [rising, partial curve] |
| O=C(NCCCn1ccnc1)C(=O)NCC1OCCCN1S(=O)(=O)c1ccc(F)cc1 (stereo unspecified) |  | -25.9 | 0.0206 µM [falling, full curve, poor fit] |
| O=C(NCCN1CCN(C(=O)c2c(F)cccc2F)CC1)C(=O)Nc1ccc(Cl)cc1 |  | -12.7 |  |
| COc1ccccc1N(C(=O)c1snc(C(N)=O)c1N)C(C(=O)NCc1ccccc1)c1ccc(C)o1 (stereo unspecified) | 4.11 µM [falling, single point] | 0.806 |  |
| CCc1noc(C)c1C(=O)N(C)CC(=O)Nc1ccc(Cl)c(Cl)c1 | 2.31 µM [rising, single point] |  |  |
| CC1Cc2ccccc2N1C(=S)NC(=O)C1(C)CC1(Cl)Cl (stereo unspecified) | 0.13 µM [falling, full curve, poor fit] | -7.06 | 0.13 µM [falling, full curve, poor fit] |
| CCN(CC)S(=O)(=O)c1ccc2c(c1)c(=O)c(C(=O)NCCOC)cn2C | 6.51 µM [rising, full curve] | 48.3 | 6.51 µM [rising, full curve] |
| COC(=O)c1cc(N2C(=O)C3C(C2=O)C2(C)C=CC3(C)O2)ccc1Cl (stereo unspecified) | 20.6 µM [falling, partial curve] | -50.5 |  |
| O=C(COc1ccc(F)cc1)Nc1nnc(C2CCCCC2)s1 | 20.6 µM [falling, single point] | 14 |  |
| CCOc1cc(NC(=O)C2CC2)c(OCC)cc1NC(=O)c1cc(OC)c(OC)c(OC)c1 |  | 18.8 |  |
| C/C(=N\NC(=O)c1cccc(N/N=C(\C)c2cc(O)ccc2O)c1)c1cc(O)ccc1O | 1.03 µM [falling, full curve] | 11.1 | 0.731 µM [falling, full curve] |
| CCCCCC(N)=O | 29.1 µM [falling, partial curve, poor fit] | -37.8 | 29.1 µM [falling, partial curve, poor fit] |

2 of the compounds above, with tabs.
Structure (SMILES)	AC50 [1]	cell number change [%]	AC50 [2]
O=C(NCCc1c[nH]c2ccccc12)/C(=C\c1cccnc1)NC(=O)c1ccccc1F	6.51 µM [falling, single point]		
Cc1noc(NS(=O)(=O)c2ccc(NC(=O)CS(=O)(=O)c3ccccc3)cc2)c1C	13 µM [falling, partial curve]	-22.7	

More results.

| Structure (SMILES) | AC50 [1] | cell number change [%] | AC50 [2] |
| --- | --- | --- | --- |
| CCCc1nc(SCC(=O)NC2CCCC2)c2ccccc2n1 |  | 7.39 |  |
| CC(=O)N1CCN(c2ccc([N+](=O)[O-])cc2C#N)CC1 |  | -9.16 |  |
| O=C(NCC1CCCO1)c1cccs1 (stereo unspecified) |  | 9.17 |  |
| CCCN1CCN(C(c2cc3cc(OCC)ccc3[nH]c2=O)c2nnnn2C2CCCCC2)CC1 (stereo unspecified) | 3.26 µM [falling, full curve, poor fit] | -59.6 | 29.1 µM [falling, single point] |
| O=C(c1ccc(S(=O)(=O)NCC2CCCO2)cc1)N1CCc2ccccc21 (stereo unspecified) | 6.51 µM [rising, single point] | -32.7 | 14.6 µM [falling, partial curve] |
| Nc1c(C(=O)NCc2ccc3c(c2)OCO3)c2nc3ccccc3nc2n1CCCN1CCOCC1 | 18.4 µM [falling, single point] | -17.2 |  |
| O=C(O)C1CCN(c2ccc(Cl)nn2)CC1 |  | -49.3 | 29.1 µM [falling, single point] |
| COCC(C)N=C1SCCN1Cc1ccccc1 (stereo unspecified) |  | -2.1 |  |
| CCN(CC)CCCNC(=O)c1cc(-c2ccc(O)cc2)on1 |  | 17.3 |  |
| O=C(NCCc1ccc(F)cc1)c1n[nH]c2ccccc12 |  | 26.4 | 4.61 µM [rising, full curve, poor fit] |
| CCOC(=O)c1c(/N=C/C2C(=O)CC(C)(C)CC2=O)sc(C)c1C | 2.59 µM [rising, full curve, poor fit] | 1.61 |  |
| C=C(C)CSc1nc(N)c(C#N)c(-c2ccc(C)cc2)c1C#N |  | 69.3 | 25.9 µM [rising, single point] |
| COC(=O)c1c(NC(=O)CSc2nnc(CNc3ccc(Cl)cc3)o2)sc(C)c1C | 3.26 µM [rising, partial curve] | 26 | 1.03 µM [rising, full curve, poor fit] |
| Cc1ccccc1NC(=O)n1ncc2cc(Cl)ccc21 |  | 37.8 |  |
| C/C=C/c1ccc(OCCOc2cc(C=O)ccc2OC)c(OC)c1 | 0.366 µM [rising, full curve, poor fit] | -4.45 |  |
| O=C(NCc1ccccn1)c1cccc([N+](=O)[O-])c1 | 1.46 µM [rising, full curve] | 13 |  |
| C=CCC(=O)OCC(=O)Nc1ccc(Oc2ccccc2)cc1 | 11.6 µM [rising, single point] | 17.9 |  |
| CC(Cc1ccccc1)NC(=O)CC(c1ccccc1)c1ccccc1O (stereo unspecified) | 6.51 µM [falling, single point] | -30.6 | 0.517 µM [falling, full curve] |
| O=C(CCN1N=C(c2ccccc2)CCC1=O)NCC1CCCO1 (stereo unspecified) | 9.2 µM [rising, partial curve] | -24.3 |  |
